Data as given in PubChem BioAssay AID1259254 (NCATS, 2017).

Purpose: 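Finding genes that stop cells copying their DNA twice in one cycle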 (primary screen)
Cells: human HCT116 colorectal cancer cells
Reagents: single siRNA against human genes
Duration: 3 days
Measured: 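Nuclei stained with Hoechst and imaged; cell-cycle phase assigned by DNA content; G2 share scaled per plate, non-targeting siRNA 0%, GMNN siRNA 100%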
Reading the numbers: G2 robust z-score: higher = more G2 cells, more excess DNA replication
Call rule: 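Active siRNAs have a G2 robust z of 5 or more median absolute deviations over the median, which in these data means about 38% or higher of GMNN control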
Here is a random part of about 59,000 deposited reagents. In the full data, about 1,550 (2.6%) were called active. 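G2 share is only a proxy for re-replication; each gene was hit by three separate siRNAs, and active genes were retested.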 Unmarked entries are inactive. The numbers tell different reagents against one gene apart. Not all columns of the deposit are shown. The record does not give: the amount of reagent.

| gene | siRNA no. | G2 robust z-score |
| --- | --- | --- |
| PRSS22 | 1 | 0.253 |
| PRSS22 | 2 | 6.47 (active) |
| PRSS22 | 3 | 6.24 (active) |
| LMO7 | 1 | -0.493 |
| LMO7 | 2 | 2.96 |
| LMO7 | 3 | -0.84 |
| MRC1 | 1 | -1.18 |
| MRC1 | 2 | -1.17 |
| MRC1 | 3 | 2.91 |
| FBXO33 | 1 | -0.23 |
| FBXO33 | 2 | 0.386 |
| FBXO33 | 3 | -0.413 |
| TMEM72 | 1 | -0.421 |
| TMEM72 | 2 | 0.277 |
| TMEM72 | 3 | 0.563 |
| PAX5 | 1 | -0.882 |
| PAX5 | 2 | -0.254 |
| PAX5 | 3 | -0.826 |
| ADAR | 1 | 1.36 |
| ADAR | 2 | -0.0706 |
| ADAR | 3 | -1 |
| DVL3 | 1 | 0.165 |
| DVL3 | 2 | 1.86 |
| DVL3 | 3 | 0.121 |
| BLCAP | 1 | -1.06 |
| BLCAP | 2 | 1.35 |
| BLCAP | 3 | 1.53 |
| PDE1B | 1 | -1.1 |
| PDE1B | 2 | 0.308 |
| PDE1B | 3 | -0.276 |
| RPSAP12 | 1 | 8.57 (active) |
| RPSAP12 | 2 | 7.21 (active) |
| RPSAP12 | 3 | 2.62 |
| MIR663AHG | 1 | 1.45 |
| MIR663AHG | 2 | 3.15 |
| MIR663AHG | 3 | 0.0445 |
| AMPD2 | 1 | -0.376 |
| AMPD2 | 2 | 2.38 |
| AMPD2 | 3 | 7.14 (active) |
| FAM20B | 1 | 3.61 |
| FAM20B | 2 | 0.0704 |
| FAM20B | 3 | -0.204 |

4 entries already listed, sorted by “G2 robust z-score”, highest first.
| gene | siRNA no. | G2 robust z-score |
| --- | --- | --- |
| TMEM72 | 3 | 0.563 |
| TMEM72 | 2 | 0.277 |
| PAX5 | 2 | -0.254 |
| PAX5 | 1 | -0.882 |

Additional results follow:
| gene | siRNA no. | G2 robust z-score |
| --- | --- | --- |
| TOM1 | 1 | -0.697 |
| TOM1 | 2 | -0.707 |
| TOM1 | 3 | -0.00756 |
| KRTCAP3 | 1 | -0.106 |
| KRTCAP3 | 2 | -0.0515 |
| KRTCAP3 | 3 | 0.169 |
| OXSM | 1 | -0.383 |
| OXSM | 2 | -0.639 |
| OXSM | 3 | 1.48 |
| CTDNEP1 | 1 | 0.681 |
| CTDNEP1 | 2 | -0.0256 |
| CTDNEP1 | 3 | -0.816 |
| TNFRSF10A | 1 | -0.419 |
| TNFRSF10A | 2 | -0.739 |
| TNFRSF10A | 3 | 0.0424 |
| GRIN1 | 1 | -0.26 |
| GRIN1 | 2 | -1.47 |
| GRIN1 | 3 | 3.05 |
| OR52N1 | 1 | 2.56 |
| OR52N1 | 2 | 0.909 |
| OR52N1 | 3 | -0.37 |
| AK3 | 1 | -0.441 |
| AK3 | 2 | -0.113 |
| AK3 | 3 | -0.364 |
| MYEF2 | 1 | 2.15 |
| MYEF2 | 2 | 0.721 |
| MYEF2 | 3 | -0.804 |
| FAM170A | 1 | 0.287 |
| FAM170A | 2 | -0.283 |
| FAM170A | 3 | 0.483 |
| DNAJC19P9 | 1 | 0.782 |
| DNAJC19P9 | 2 | -0.595 |
| DNAJC19P9 | 3 | 0.531 |
| NMBR | 1 | 2.97 |
| NMBR | 2 | -0.892 |
| NMBR | 3 | 0.126 |
| CHST2 | 1 | 0.101 |
| CHST2 | 2 | -0.0353 |
| CHST2 | 3 | -0.658 |
| UBXN11 | 1 | -0.927 |
| UBXN11 | 2 | -0.777 |
| UBXN11 | 3 | 1.07 |
| PLD3 | 1 | 0.359 |
| PLD3 | 2 | 2.49 |
| PLD3 | 3 | -0.692 |
